PubChem BioAssay AID504808 – Drosophila RNAi Screening Center, 2011
The screen tested about 21,000 reagents; below is an unselected part of those with a known target gene and a result. Over the whole deposit, 18 (0.084%) got an active call. 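Raw counts without plate normalisation, one of two replicates; the ratio scores behind the calls were not deposited.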 Reagents against one gene are numbered here. Names joined by + are all predicted targets of the reagent. The record does not give: the amount of reagent, the time to read-out.

- Aim: 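Fly genes required to hold E2F transcription in check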 (primary screen)
- Cell system: Drosophila S2 cells
- Reagent: long dsRNA against Drosophila genes
- Measured: 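Dual luciferase plate measurements; E2F-specific signal taken as firefly over Renilla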
- Direction: E2F firefly: higher = more E2F reporter activity; Renilla normaliser: higher = more normaliser reporter signal
- Call rule: 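a knock-down counted as active when the firefly/Renilla E2F signal rose above 50%, a threshold chosen arbitrarily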

target gene | dsRNA no. | E2F firefly, rep 1 | Renilla normaliser, rep 1 | Call
caup | 1 | 1.03e5 | 5365 | inactive
CG2017 | 1 | 66527 | 3518 | inactive
Ir48b | 1 | 92895 | 4179 | inactive
CG17221 | 1 | 1.64e5 | 5398 | inactive
Rh3 | 1 | 67194 | 2881 | inactive
CG7080 | 1 | 77260 | 3996 | inactive
t-Grip84 | 1 | 1.12e5 | 3919 | inactive
CG16710 | 1 | 1.03e5 | 6081 | inactive
hpRNA:CR32205 | 1 | 1.40e5 | 7729 | inactive
CG34227 | 1 | 86213 | 3962 | inactive
CG34227 | 2 | 1.07e5 | 4657 | inactive
CG10208 | 1 | 1.21e5 | 6276 | inactive
HIPP1 | 1 | 83974 | 3530 | inactive
CG4679 | 1 | 1.01e5 | 4246 | inactive
CG14424 | 1 | 1.21e5 | 6182 | inactive
otk2 | 1 | 96915 | 4299 | inactive
Arf4 | 1 | 43920 | 4046 | inactive
Mdh1 (retired record) | 1 | 1.36e5 | 4930 | inactive
CG16762 | 1 | 1.06e5 | 4323 | inactive
pll | 1 | 1783 | 1076 | inactive
Asator | 1 | 67147 | 4448 | inactive
VAChT | 1 | 78541 | 2407 | inactive
VAChT | 2 | 80369 | 3303 | inactive
CG2059 | 1 | 43218 | 3982 | inactive
CG14054 | 1 | 1.07e5 | 6533 | inactive
CG14205 | 1 | 1.40e5 | 6388 | inactive
Edem2 | 1 | 92814 | 3791 | inactive
TTLL15 | 1 | 1.22e5 | 5770 | inactive
Lcp65Aa | 1 | 1.09e5 | 3989 | inactive
Ref1 | 1 | 65510 | 3279 | inactive
ADD1 | 1 | 2701 | 215 | inactive
CG17996 + Tsen2 | 1 | 1.02e5 | 4809 | inactive
CG40583 (retired record) | 1 | 83597 | 2728 | inactive
EMC4 | 1 | 1.55e5 | 7840 | inactive
CG13084 | 1 | 1.07e5 | 4123 | inactive
CG34404 | 1 | 99449 | 5754 | inactive
CG34404 | 2 | 75696 | 3347 | inactive
wts | 1 | 69162 | 5050 | inactive
CG6329 | 1 | 154 | 25 | inactive
XNP | 1 | 1698 | 920 | inactive
Ca-beta | 1 | 1.62e5 | 5463 | inactive
Ca-beta | 2 | 1.53e5 | 5735 | inactive
Ca-beta | 3 | 1.51e5 | 5199 | inactive
CG32391 | 1 | 1.27e5 | 4706 | inactive
Polr2M | 1 | 1.45e5 | 8076 | inactive
spz6 | 1 | 73851 | 3328 | inactive
Mbs | 1 | 1.31e5 | 3391 | inactive
Mbs | 2 | 72857 | 3345 | inactive
Mbs | 3 | 1.64e5 | 8761 | inactive
CG18598 | 1 | 1.40e5 | 6946 | inactive
Cpn | 1 | 71174 | 3624 | inactive
Grl62a | 1 | 1.24e5 | 4646 | inactive
hrm | 1 | 1.15e5 | 5085 | inactive
Tsp42Ef | 1 | 1.43e5 | 4502 | inactive
CG42542 | 1 | 71676 | 3271 | inactive
CG32444 | 1 | 72412 | 3533 | inactive
CG33169 | 1 | 1.30e5 | 7189 | inactive
Gs1l | 1 | 1.61e5 | 5501 | inactive
pim | 1 | 69643 | 4203 | inactive
Toll-4 | 1 | 1.72e5 | 5599 | inactive
CG15036 | 1 | 1.21e5 | 5483 | inactive
LanB2 | 1 | 82916 | 4012 | inactive
CG14000 | 1 | 1.38e5 | 4760 | inactive
EMC2B + EMC2A | 1 | 1.22e5 | 7555 | inactive
CG13590 | 1 | 1.12e5 | 4797 | inactive
Gr61a | 1 | 1.04e5 | 3791 | inactive
Dhrs4 | 1 | 73080 | 131 | inactive
CG16824 | 1 | 94476 | 3783 | inactive
Lcp65APsi | 1 | 1.25e5 | 3526 | inactive
Lcp65APsi | 2 | 99505 | 4230 | inactive
Mcm3 | 1 | 8650 | 652 | inactive
CG8320 + ATPCL | 1 | 1.41e5 | 4912 | inactive
Ipp | 1 | 91648 | 5499 | inactive
Lcp1Psi | 1 | 1.41e5 | 4902 | inactive
vlc | 1 | 1.07e5 | 4614 | inactive
CG14545 | 1 | 1.17e5 | 6050 | inactive
Samuel | 1 | 1.34e5 | 5132 | inactive
Samuel | 2 | 1.48e5 | 4370 | inactive
Samuel | 3 | 1.61e5 | 5280 | inactive
CG31055 | 1 | 84789 | 2962 | inactive
Fer3 | 1 | 81645 | 4347 | inactive
CG11883 | 1 | 3095 | 198 | inactive
CG10991 (retired record) | 1 | 1.26e5 | 6547 | inactive
Jhbp15 | 1 | 1.48e5 | 7257 | inactive

Only “E2F firefly, rep 1” (7 entries from above):
caup: 1.03e5
CG2017: 66527
Ir48b: 92895
CG17221: 1.64e5
Rh3: 67194
CG7080: 77260
t-Grip84: 1.12e5
